Results deposited as PubChem BioAssay AID1224830 (NIAID, 2016)
This is a random part of about 18,000 deposited reagents. In the full data, about 2,900 (16%) are marked active. 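Calls are made per well; low scores hint the gene aids the LPS response, high scores that it dampens it.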 Entries without a mark were called inactive. Repeated entries: four replicate wells of each siRNA pool.

Purpose: 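Regulators of TLR4 signalling towards TNF-alpha in macrophage-like cells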 (primary screen)
System: human THP-1 monocytic leukaemia cells, TNF dual-luciferase reporter clone, PMA-differentiated to macrophage-like cells
Knock-down reagent: siRNA pool against human genes, 50 nM
Duration: LPS for 4 h, given about 3 days after siRNA transfection
Challenge: bacterial LPS (TLR4 ligand), 10 ng/ml
Measurement: 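TNF firefly reporter luminescence divided by renilla, normalised to the plate median, then turned into a robust z-score for each replicate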
Reading the numbers: TNF reporter robust z-score: higher = stronger TNF reporter response to LPS
Rule for the call: 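a well is active when its z-score exceeds 2.8 or falls below -1.5; control wells carry no call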

no.	gene knocked down	TNF reporter robust z-score
1	PRRT2	-1.1
2	PRRT2	-0.28
3	PRRT2	-1.54 (active)
4	PRRT2	-0.72
5	TOGARAM1	-1.09
6	TOGARAM1	-1.1
7	TOGARAM1	0.22
8	TOGARAM1	1.78
9	SKIC3	-0.1
10	SKIC3	0.1
11	SKIC3	-0.58
12	SKIC3	-0.15
13	CFAP251	1.2
14	CFAP251	1.06
15	CFAP251	0.68
16	CFAP251	1.25
17	FFAR3	0.22
18	FFAR3	1.21
19	FFAR3	0.67
20	FFAR3	0.82
21	SEC24B	2.6
22	SEC24B	1.06
23	SEC24B	0.13
24	SEC24B	1.3
25	FAM209B	-0.09
26	FAM209B	0.49
27	FAM209B	-0.42
28	FAM209B	-0.27
29	LY6G6D	-0.64
30	LY6G6D	-0.1
31	LY6G6D	-0.06
32	LY6G6D	-1.63 (active)
33	SEL1L3	-0.56
34	SEL1L3	-0.03
35	SEL1L3	-0.74
36	SEL1L3	0.8
37	CRLF3	-1.24
38	CRLF3	-0.62
39	CRLF3	-1.23
40	CRLF3	-0.59
41	KRTAP10-9	0.36
42	KRTAP10-9	1.84
43	KRTAP10-9	0.8
44	KRTAP10-9	0.57
45	KRT23	3.54 (active)
46	KRT23	1.51
47	KRT23	3.5 (active)
48	KRT23	-0.37
49	SIRAL2	1.15
50	SIRAL2	2.26
51	SIRAL2	2.36
52	SIRAL2	3.25 (active)
53	RELCH	1.94
54	RELCH	1.41
55	RELCH	-0.28
56	RELCH	1.55
57	ITSN1	-0.12
58	ITSN1	-0.07
59	ITSN1	0.63
60	ITSN1	0.93
61	GSTM2	0.1
62	GSTM2	-0.06
63	GSTM2	0
64	GSTM2	0.96
65	DDX11	0.4
66	DDX11	-0.45
67	DDX11	0.5
68	DDX11	0.89
69	SNX8	0.24
70	SNX8	-1.01
71	SNX8	0.16
72	SNX8	-0.82
73	GNG10	-1.65 (active)
74	GNG10	-1.43
75	GNG10	-1.03
76	GNG10	-0.54

Entries listed so far whose target name starts with F or f:
gene knocked down	TNF reporter robust z-score
FFAR3	0.22
FFAR3	1.21
FFAR3	0.67
FFAR3	0.82
FAM209B	-0.09
FAM209B	0.49
FAM209B	-0.42
FAM209B	-0.27
